Results from PMC7577714, “Regulation of chaperone function by coupled folding and oligomerization” (Science Advances, 2020).
Residue numbers refer to the chain shown, from its start. Names and notes keep the numbering of the source. Results are given in words; binding and its absence hold for the method and conditions named. Binding can be weak; no strength is given.

Legend:
[1] = target: tOmpA, the eight-stranded transmembrane domain of OmpA (residues 1 to 177); assay: SEC-MALS; Skp(A108L) with added tOmpA; apparent molecular mass; both purified
[2] = target: tOmpA, the eight-stranded transmembrane domain of OmpA (residues 1 to 177); assay: NMR chemical shift perturbation (apo against complex); [U-2H,15N]-Skp variants without and with unlabeled tOmpA, 2D [15N,1H]-TROSY, 37°C, 20 mM MES pH 6.5, 150 mM NaCl; both purified

B1: Skp(A108L) (natural protein, E. coli, UniProt P0AEU7 21-161, looked up)
chain: ADKIAIVNMGSLFQQVAQKTGVSNTLENEFKGRASELQRMETDLQAKMKKLQSMKAGSDRTKLEKDVMAQRQTFAQKAQAFEQDRARRSNEERGKLVTRIQTAVKSVLNSQDIDLVVDANAVAYNSSDVKDITADVLKQVK
notes: Monomer-trimer equilibrium strongly shifted toward the monomer; also called Skp(108L); source: E. coli BL21-(λ DE3)-Lemo, purified (Ni-NTA, SEC); not shown: His6, N-terminal, kept
In the case of B1, the binding [1] is reported as “binds” and the binding [2] is reported as “binds”.

B2: Skp(WT), seventeen kilodalton protein, periplasmic chaperone of Escherichia coli (natural protein, E. coli, UniProt P0AEU7 21-161, looked up)
chain: B1 chain with L108A
notes: Stands in a monomer-trimer equilibrium; the active form is the homotrimer; The thrombin-cleavable His6-tag of pET28b was not cleaved; Isotope-labelled for NMR in some samples; source: E. coli BL21-(λ DE3)-Lemo, purified (Ni-NTA, SEC); not shown: His6, N-terminal, kept
With B2 the binding [2] was “binds”.

B3: Skp(A103L) (natural protein, E. coli, UniProt P0AEU7 21-161, looked up)
chain: B1 chain with A103L, L108A
notes: Monomer-trimer equilibrium essentially as the wild type; source: E. coli BL21-(λ DE3)-Lemo, purified (Ni-NTA, SEC); not shown: His6, N-terminal, kept
With B3 the binding [2] was “binds”.

B4: Skp(A103R) (natural protein, E. coli, UniProt P0AEU7 21-161, looked up)
chain: B1 chain with A103R, L108A
notes: Monomer-trimer equilibrium shifted toward the monomer; source: E. coli BL21-(λ DE3)-Lemo, purified (Ni-NTA, SEC); not shown: His6, N-terminal, kept
With B4 the binding [2] was “binds”.
